Part of at least one peptide drawing is inferred or uncertain, most often the ends. At least one compound was matched to its structure with a doubt left. *1 amine or outer side, *2 acyl side, *3 side chain or, on linkers, in order; H or OH if unused. Where a SMILES comes first, the peptide text is derived from it. Bridges are numbered along the chain shown (N, C = ends). [ ]: non-standard residue; d: D form. cBu(1-CO,cis-3-CH2NH) = O=C([C@H]1C[C@@H](CN[*:1])C1)[*:2]; NMeNva(5-imidazol-1-yl) = CN[C@@H](CCCn1ccnc1)C(=O)O; X23 = O=C([C@H](Cc1ccc(C(F)(F)F)nc1)N[*:1])[*:2]; Ala(pyrimidin-5-yl) = N[C@@H](Cc1cncnc1)C(=O)O; NMe3Pal(6-Me) = CN[C@@H](Cc1ccc(C)nc1)C(=O)O; Lys(N3) = [N-]=[N+]=NCCCC[C@H](N)C(=O)O; X63 = O=C([C@H]1C[C@H](CN[*:1])C1)[*:2]; X74 = O=C([C@H](CCCn1ccnc1)N[*:1])[*:2]; NMeAha = CN[C@@H](CCN=[N+]=[N-])C(=O)O; Orn(N3) = [N-]=[N+]=NCCC[C@H](N)C(=O)O; 1Nal = N[C@@H](Cc1cccc2ccccc12)C(=O)O; d1Nal = N[C@H](Cc1cccc2ccccc12)C(=O)O; Phe(2-F) = N[C@@H](Cc1ccccc1F)C(=O)O; NMe3Pal = CN[C@@H](Cc1cccnc1)C(=O)O; NMeOrn(Me) = CNCCC[C@H](NC)C(=O)O; X66 = O=C(CSCC1(N[*:1])CCC1)[*:2]; NMeF = CN[C@@H](Cc1ccccc1)C(=O)O; aIle = CC[C@@H](C)[C@H](N)C(=O)O; 3Pal = N[C@@H](Cc1cccnc1)C(=O)O; 4Pal = N[C@@H](Cc1ccncc1)C(=O)O; d(αMeC) = C[C@@](N)(CS)C(=O)O; Cba = N[C@@H](CC1CCC1)C(=O)O; hSer = N[C@@H](CCO)C(=O)O; αMeC = C[C@](N)(CS)C(=O)O; Nle = CCCC[C@H](N)C(=O)O; Orn = NCCC[C@H](N)C(=O)O
target: KRAS-G12D protein (Homo sapiens, UniProt P01116, G12D); assay: SOS-mediated nucleotide exchange assay (BODIPY-GDP / Tb-streptavidin TR-FRET); assay type: biochemical

Chains of the proteins cited; added tags and fusions are not shown. Residues count along the entry.
UniProt P01116, 1-188 isoform P01116-2 G12D: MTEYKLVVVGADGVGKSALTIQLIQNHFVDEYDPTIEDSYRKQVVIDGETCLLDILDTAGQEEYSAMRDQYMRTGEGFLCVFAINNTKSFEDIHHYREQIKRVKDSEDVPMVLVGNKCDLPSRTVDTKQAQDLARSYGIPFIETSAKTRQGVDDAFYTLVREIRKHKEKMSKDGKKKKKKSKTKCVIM

Q: How did the EC50 turn out when `CCCC[C@@H]1NC(=O)[C@H](Cc2cccnc2)NC(=O)[C@H](CCCNC(=N)N)NC(=O)[C@H](Cc2ccccc2)NC(=O)CSCC2(CCC2)NC(=O)[C@H](Cc2ccccc2)N(C)C(=O)[C@H](CCCC)NC(=O)[C@H](Cc2ccc(OC)cc2)NC1=O` [compound 183, cyclo(F-R~3Pal-Nle-TyrOMe-Nle-NMeF-cBuTE-ClAc)] (cyclo(FR[3Pal][Nle]Y(Me)[Nle][NMeF][X66])) was run?
A: 3440 nM

Q: For `CCCC[C@@H]1NC(=O)[C@H](Cc2ccccc2F)NC(=O)[C@H](CC2CCC2)NC(=O)[C@H](Cc2ccc(C(F)(F)F)nc2)NC(=O)[C@H](CCCNC(=N)N)NC(=O)[C@H](Cc2ccccc2)NC(=O)CSC[C@@](C)(C(N)=O)NC(=O)[C@H](Cc2cccnc2)N(C)C1=O` [compound 36, cyclo(F-R-4CF33Pal-cBuA-Phe2F-Nle-NMe3Pal-aMeCl-ClAc)] ({CH2CO}-FR[X23][Cba][Phe(2-F)][Nle][NMe3Pal][αMeC]-NH2; thioether N-8), which EC50 is on record?
A: 1.59 nM

Q: `CCCC[C@@H]1NC(=O)[C@H](CCCCN)NC(=O)[C@H](CCCNC(=N)N)NC(=O)[C@@H](Cc2cccc3ccccc23)NC(=O)[C@H]2C[C@@H](CNC(=O)[C@H](Cc3ccccc3)N(C)C(=O)[C@H](CCCC)NC(=O)[C@H](Cc3ccc(O)cc3)NC1=O)C2` [compound 204, cyclo(dlNal-R-K-Nle-Y-Nle-NMeF-c3amCblc)] (cyclo([d1Nal]RK[Nle]Y[Nle][NMeF][cBu(1-CO,cis-3-CH2NH)])) was tested. Which EC50 did it give?
A: 146 nM

Q: How did the EC50 turn out when `CCCC[C@@H]1NC(=O)[C@H](Cc2cccnc2)NC(=O)[C@H](CCN=[N+]=[N-])N(C)C(=O)[C@H](Cc2ccccc2)N(C)C(=O)[C@H]2C[C@@H](CNC(=O)[C@H](Cc3cccnc3)N(C)C(=O)[C@H](CCCC)NC(=O)[C@H](Cc3ccccc3F)NC1=O)C2` [compound 253, cyclo(NMeF-NMeDabN3-3Pal-Nle-Phe2F-Nle-NMe3Pal-c3amCblc)] (cyclo([3Pal][Nle][Phe(2-F)][Nle][NMe3Pal][cBu(1-CO,cis-3-CH2NH)][NMeF][NMeAha])) was run?
A: 8470 nM

Q: `CCCC[C@@H]1NC(=O)[C@H](Cc2ccccc2F)NC(=O)[C@H](CC2CCC2)NC(=O)[C@H](Cc2cccnc2)NC(=O)[C@H](CCO)NC(=O)[C@H](Cc2ccc(O)cc2)NC(=O)CSC[C@](C)(C(N)=O)NC(=O)[C@H](Cc2cccnc2)N(C)C1=O` [compound 34, cyclo(Y-hS-3Pal-cBuA-Phe2F-Nle-NMe3Pal-daMeCl-ClAc)] ({CH2CO}-Y[hSer][3Pal][Cba][Phe(2-F)][Nle][NMe3Pal][d(αMeC)]-NH2; thioether N-8) was tested. Which EC50 did it give?
A: 6680 nM

Q: For `CCCC[C@@H]1NC(=O)[C@H](Cc2ccccc2F)NC(=O)[C@H](CC2CCC2)NC(=O)[C@H](Cc2cccnc2)NC(=O)[C@H](CCCNC(=N)N)NC(=O)[C@H](Cc2ccccc2)NC(=O)CSC[C@@](C)(C(N)=O)NC(=O)[C@H](Cc2ccccc2)N(C)C1=O` [compound 28, cyclo(F-R~3Pal-cBuA-Phe2F-Nle-NMeF-aMeCl-ClAc)] ({CH2CO}-FR[3Pal][Cba][Phe(2-F)][Nle][NMeF][αMeC]-NH2; thioether N-8), which EC50 is on record?
A: 2 nM

Q: For `CCCC[C@@H]1NC(=O)[C@H](Cc2cccnc2)NC(=O)[C@H](CCCNC(=N)N)NC(=O)[C@H](Cc2cccnc2)NC(=O)[C@H]2C[C@@H](CNC(=O)[C@H](Cc3ccccc3)N(C)C(=O)[C@H](CCCC)NC(=O)[C@H](Cc3ccc(OC)cc3)NC1=O)C2` [compound 356, cyclo(3Pal-R-3Pal-Nle-TyrOMe-Nle-NMeF-c3amCblc)] (cyclo([3Pal]R[3Pal][Nle]Y(Me)[Nle][NMeF][cBu(1-CO,cis-3-CH2NH)])), which EC50 is on record?
A: 1770 nM

Q: Which EC50 does the source give for `CCCC[C@@H]1NC(=O)[C@H](Cc2ccc(OC)cc2)NC(=O)[C@H](CC2CCC2)NC(=O)[C@H](Cc2cccnc2)NC(=O)[C@H](CCCN)NC(=O)[C@H](Cc2ccc(O)cc2)NC(=O)CSC[C@](C)(C(N)=O)NC(=O)[C@H](Cc2cccnc2)N(C)C1=O` [compound 30, cyclo(Y-Or-3Pal-cBuA-TyrOMe-Nle-NMe3Pal-daMeCl-ClAc)] ({CH2CO}-Y[Orn][3Pal][Cba]Y(Me)[Nle][NMe3Pal][d(αMeC)]-NH2; thioether N-8; N-terminus and C-terminus assumed) here?
A: 659 nM

Q: `CCCC[C@@H]1NC(=O)[C@H](Cc2cncnc2)NC(=O)[C@H](CCCNC)N(C)C(=O)[C@H](Cc2ccccc2)NC(=O)[C@H]2C[C@@H](CNC(=O)[C@H](Cc3ccc(C)nc3)N(C)C(=O)[C@H](CCCC)NC(=O)[C@H](Cc3ccc(OC)cc3)NC1=O)C2` [compound 358, cyclo(F-NMeOmMe-PyrimAla-Nle-TyrOMe-Nle-NMe3Pal4Me-c3amCb1c)] (cyclo(F[NMeOrn(Me)][Ala(pyrimidin-5-yl)][Nle]Y(Me)[Nle][NMe3Pal(6-Me)][cBu(1-CO,cis-3-CH2NH)])) was tested. Which EC50 did it give?
A: 4280 nM

Q: `CCCC[C@@H]1NC(=O)[C@H](Cc2cccnc2)NC(=O)[C@H](CCCn2ccnc2)N(C)C(=O)[C@H](Cc2ccccc2)NC(=O)[C@H]2C[C@@H](CNC(=O)[C@H](Cc3cccnc3)N(C)C(=O)[C@H](CCCCN=[N+]=[N-])NC(=O)[C@H](Cc3ccccc3F)NC1=O)C2` [compound 156, cyclo(F-NMeNvalmid-3Pal-Nle-Phe2F-LysN3-NMe3Pal-c3amCblc)] (cyclo(F[NMeNva(5-imidazol-1-yl)][3Pal][Nle][Phe(2-F)][Lys(N3)][NMe3Pal][cBu(1-CO,cis-3-CH2NH)])) was tested. Which EC50 did it give?
A: 612 nM

Q: Which EC50 does the source give for `CCCC[C@@H]1NC(=O)[C@H](Cc2cccnc2)NC(=O)[C@H](CCCn2ccnc2)NC(=O)[C@H](Cc2ccccc2)NC(=O)[C@H]2C[C@@H](CNC(=O)[C@H](Cc3ccccc3)N(C)C(=O)[C@H](CCCC)NC(=O)[C@H](Cc3ccc(OC)cc3)NC1=O)C2` [compound 269, cyclo(F-Nvalmid-3Pal-Nle-TyrOMe-Nle-NMeF-c3amCblc)] (cyclo(F[X74][3Pal][Nle]Y(Me)[Nle][NMeF][cBu(1-CO,cis-3-CH2NH)])) here?
A: 1420 nM

Q: `CCCC[C@@H]1NC(=O)[C@H](Cc2cccnc2)NC(=O)[C@H](CCN=[N+]=[N-])N(C)C(=O)[C@H](Cc2ccccc2)NC(=O)[C@H]2C[C@@H](CNC(=O)[C@H](Cc3cccnc3)N(C)C(=O)[C@H](CCCC)NC(=O)[C@H](Cc3ccccc3F)NC1=O)C2` [compound 254, cyclo(F-NMeDabN3-3Pal-Nle-Phe2F-Nle-NMe3Pal-c3amCblc)] (cyclo(F[NMeAha][3Pal][Nle][Phe(2-F)][Nle][NMe3Pal][cBu(1-CO,cis-3-CH2NH)])) was tested. Which EC50 did it give?
A: 753 nM

Q: Which EC50 does the source give for `CCCC[C@@H]1NC(=O)[C@H](Cc2cccnc2)NC(=O)[C@H](CCCNC(=N)N)NC(=O)[C@H](Cc2ccccc2)NC(=O)CSC[C@@](C)(C(N)=O)NC(=O)[C@H](Cc2cccnc2)N(C)C(=O)[C@H](CCCC)NC(=O)[C@H]([C@H](C)CC)NC1=O` [compound 42, cyclo(F-R-3Pal-Nle-all-Nle-NMe3Pal-aMeCl-ClAc)] ({CH2CO}-FR[3Pal][Nle][aIle][Nle][NMe3Pal][αMeC]-NH2; thioether N-8) here?
A: 946 nM

Q: For `CCCC[C@@H]1NC(=O)[C@H](Cc2cccnc2)NC(=O)[C@H](CCCNC(=N)N)NC(=O)[C@H](Cc2ccccc2)NC(=O)CSC[C@@](C)(C(N)=O)NC(=O)[C@H](Cc2cccnc2)N(C)C(=O)[C@H](CCCC)NC(=O)[C@H](C(C)C)NC1=O` [compound 39, cyclo(F-R-3Pal-Nle-V-Nle-NMe3Pal-aMeCl-ClAc)] ({CH2CO}-FR[3Pal][Nle]V[Nle][NMe3Pal][αMeC]-NH2; thioether N-8), which EC50 is on record?
A: 329 nM

Q: Which EC50 does the source give for `CCC[C@@H]1NC(=O)[C@H](Cc2ccc(OC)cc2)NC(=O)[C@H](CC(C)C)NC(=O)[C@H](Cc2ccncc2)NC(=O)[C@H](CCCNC(=N)N)NC(=O)[C@H](Cc2ccc(F)c(F)c2)NC(=O)CSC[C@H](C(N)=O)NC(=O)[C@H](Cc2ccccc2)N(C)C1=O` [compound 23, cyclo(Phe34F2-R-4Pal-L-TyrOMe-Nva-NMeF-dCl-ClAc)] here?
A: 2770 nM

Q: With `CCCC[C@@H]1NC(=O)[C@H](Cc2cccnc2)NC(=O)[C@H](CCCNC(=N)N)NC(=O)[C@H](Cc2ccccc2)NC(=O)CSC[C@@](C)(C(N)=O)NC(=O)[C@H](Cc2cccnc2)N(C)C(=O)[C@H](CCCC)NC(=O)[C@H]([C@@H](C)CC)NC1=O` [compound 40, cyclo(F-R-3Pal-Nle-I-Nle-NMe3Pal-aMeCl-ClAc)] ({CH2CO}-FR[3Pal][Nle]I[Nle][NMe3Pal][αMeC]-NH2; thioether N-8) as the molecule, how does the EC50 read?
A: 642 nM

Q: Which EC50 does the source give for `CCCC[C@@H]1NC(=O)[C@H](Cc2cccnc2)NC(=O)[C@H](CCCN=[N+]=[N-])NC(=O)[C@H](Cc2ccccc2)NC(=O)[C@H]2C[C@@H](CNC(=O)[C@H](Cc3cccnc3)N(C)C(=O)[C@H](CCCC)NC(=O)[C@H](Cc3ccccc3F)NC1=O)C2` [compound 154, cyclo(F-OrnN3-3Pal-Nle-Phe2F-Nle-NMe3Pal-c3amCblc)] (cyclo(F[Orn(N3)][3Pal][Nle][Phe(2-F)][Nle][NMe3Pal][cBu(1-CO,cis-3-CH2NH)])) here?
A: 5590 nM

Q: How did the EC50 turn out when `CCCC[C@@H]1NC(=O)[C@H](Cc2cccnc2)NC(=O)[C@H](CC2CCC2)NC(=O)[C@H](Cc2cccnc2)NC(=O)[C@H](CCCNC(=N)N)NC(=O)[C@H](Cc2cccc3ccccc23)NC(=O)CSC[C@H](C(=O)O)NC(=O)[C@H](Cc2cccnc2)N(C)C1=O` [compound 330, cyclo(INal-R-3Pal-cBuA-3Pal-Nle-NMe3Pal-dC-ClAc)] ({CH2CO}-[1Nal]R[3Pal][Cba][3Pal][Nle][NMe3Pal][dC]-OH; thioether N-8) was run?
A: 208 nM

Q: With `CCCC[C@@H]1NC(=O)[C@H](Cc2cccnc2)NC(=O)[C@H](CCCNC(=N)N)NC(=O)[C@H](Cc2ccccc2)NC(=O)[C@H]2C[C@H](CNC(=O)[C@H](Cc3ccccc3)N(C)C(=O)[C@H](CCCC)NC(=O)[C@H](Cc3ccc(OC)cc3)NC1=O)C2` [compound 150, cyclo(F-R-3Pal-Nle-TyrOMe-Nle-NMeF-13amCb1c)] (cyclo(FR[3Pal][Nle]Y(Me)[Nle][NMeF][X63])) as the molecule, how does the EC50 read?
A: 186 nM

Q: How did the EC50 turn out when `CCCC[C@@H]1NC(=O)[C@H](Cc2ccncc2)NC(=O)[C@H](CCCNC(=N)N)NC(=O)[C@H](Cc2cccc3ccccc23)NC(=O)CSC[C@H](C(=O)O)NC(=O)[C@H](Cc2cccnc2)N(C)C(=O)[C@H](CCCC)NC(=O)[C@H](Cc2ccc(OC)cc2)NC1=O` [compound 326, cyclo(INal-R-4Pal-Nle-TyrOMe-Nle-NMe3Pal-dC-ClAc)] ({CH2CO}-[1Nal]R[4Pal][Nle]Y(Me)[Nle][NMe3Pal][dC]-OH; thioether N-8) was run?
A: 69 nM

— patent US20260001914A1, “MACROCYCLIC PEPTIDES TARGETING KRAS” (Merck Sharp & Dohme LLC, priority 2022, published 2026)
